Earlier results, collected in patent US7235649B2, “Isolated GRP94 ligand binding domain polypeptide and nucleic acid encoding same, and screening methods employing same” (Duke University, priority 2000, dated 2007).
For at least one compound, name, drawing or mass did not settle the structure.

Test system: EGF-R
Conditions: Supino-Rosin et al. (2000); cited from earlier work

Q: With `COC1=C2C[C@@H](C)C[C@H](OC)[C@H](O)[C@@H](C)/C=C(\C)[C@H](OC(N)=O)[C@@H](OC)/C=C\C=C(/C)C(=O)NC(=CC1=O)C2=O` [geldanamycin] as the compound, how does the “EGF-R trafficking after treatment” value read?
A: The value was “EGF-R is unable to traffic to the plasma membrane”.
